We go through two molecules from PMC7829511.

Protein sequences, listed by entry. Tags and fused reporters are not part of them.
UniProt P40763: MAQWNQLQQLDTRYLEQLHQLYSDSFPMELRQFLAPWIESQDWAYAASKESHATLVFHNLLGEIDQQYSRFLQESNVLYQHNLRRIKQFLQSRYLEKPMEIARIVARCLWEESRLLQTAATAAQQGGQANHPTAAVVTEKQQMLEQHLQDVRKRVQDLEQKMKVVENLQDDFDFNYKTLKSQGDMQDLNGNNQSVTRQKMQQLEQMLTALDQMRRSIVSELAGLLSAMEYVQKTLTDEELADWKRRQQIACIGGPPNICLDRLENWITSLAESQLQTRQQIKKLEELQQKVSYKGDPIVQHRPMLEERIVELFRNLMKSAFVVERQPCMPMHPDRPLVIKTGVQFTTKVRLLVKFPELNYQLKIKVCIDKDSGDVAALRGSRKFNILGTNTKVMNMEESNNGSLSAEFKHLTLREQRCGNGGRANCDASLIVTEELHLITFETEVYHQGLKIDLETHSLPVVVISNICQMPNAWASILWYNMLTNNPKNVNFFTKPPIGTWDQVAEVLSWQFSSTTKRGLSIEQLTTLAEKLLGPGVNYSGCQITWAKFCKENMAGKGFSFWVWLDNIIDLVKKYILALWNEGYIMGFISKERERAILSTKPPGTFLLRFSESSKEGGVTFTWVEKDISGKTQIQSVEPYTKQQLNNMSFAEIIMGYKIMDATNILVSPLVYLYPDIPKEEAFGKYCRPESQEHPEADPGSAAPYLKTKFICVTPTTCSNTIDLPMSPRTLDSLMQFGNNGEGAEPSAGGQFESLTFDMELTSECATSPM

Results are given in words; binding and its absence hold for the method and conditions named. In cells and extracts the contact can be indirect. Some binding calls cover weakened binding; strength is not graded here.

Assay [1] has as its target STAT3 (human (endogenous in RKO)), P40763. Kind of assay: co-IP; RKO cells treated with (+) or without (-) cynaropicrin for 24 h; total cell protein incubated with STAT3 antibody or STAT4 antibody at 4°C overnight, adsorbed with agarose beads; Western blotting. The following applies: remark: other sources report otherwise.
The target in assay [2] is STAT3 (human (endogenous in RKO)) (UniProt P40763). The experiment in a line: condition: only cells treated with cynaropicrin for 24 h; co-IP; RKO cells treated with cynaropicrin for 24 h; total cell protein precipitated with STAT3 antibody; Western blotting. For orientation: In western blotting, separated proteins are transferred to a membrane and probed.
For assay [3] the target is unchanged. Kind of assay: co-IP; RKO cells treated with (+) or without (-) cynaropicrin for 24 h; total cell protein incubated with STAT3 antibody or STAT4 antibody at 4°C overnight, adsorbed with agarose beads; Western blotting.

B1: STAT4, Q14765 1-748 (protein)
chain: MSQWNQVQQLEIKFLEQVDQFYDDNFPMEIRHLLAQWIENQDWEAASNNETMATILLQNLLIQLDEQLGRVSKEKNLLLIHNLKRIRKVLQGKFHGNPMHVAVVISNCLREERRILAAANMPVQGPLEKSLQSSSVSERQRNVEHKVAAIKNSVQMTEQDTKYLEDLQDEFDYRYKTIQTMDQSDKNSAMVNQEVLTLQEMLNSLDFKRKEALSKMTQIIHETDLLMNTMLIEELQDWKRRQQIACIGGPLHNGLDQLQNCFTLLAESLFQLRRQLEKLEEQSTKMTYEGDPIPMQRTHMLERVTFLIYNLFKNSFVVERQPCMPTHPQRPLVLKTLIQFTVKLRLLIKLPELNYQVKVKASIDKNVSTLSNRRFVLCGTNVKAMSIEESSNGSLSVEFRHLQPKEMKSSAGGKGNEGCHMVTEELHSITFETQICLYGLTIDLETSSLPVVMISNVSQLPNAWASIIWYNVSTNDSQNLVFFNNPPPATLSQLLEVMSWQFSSYVGRGLNSDQLHMLAEKLTVQSSYSDGHLTWAKFCKEHLPGKSFTFWTWLEAILDLIKKHILPLWIDGYVMGFVSKEKERLLLKDKMPGTFLLRFSESHLGGITFTWVDHSESGEVRFHSVEPYNKGRLSALPFADILRDYKVIMAENIPENPLKYLYPDIPKDKAFGKHYSSQPCEVSRPTERGDKGYVPSVFIPISTIRSDSTEPHSPSDLLPMSPSVYAVLRENLSPTTIETAMKSPYSAE
B1: the binding result in assay [1] is recorded as “binds”.

B2: leukemia inhibitory factor receptor (receptor, UniProt P42702 45-1097)
chain: QKKGAPHDLKCVTNNLQVWNCSWKAPSGTGRGTDYEVCIENRSRSCYQLEKTSIKIPALSHGDYEITINSLHDFGSSTSKFTLNEQNVSLIPDTPEILNLSADFSTSTLYLKWNDRGSVFPHRSNVIWEIKVLRKESMELVKLVTHNTTLNGKDTLHHWSWASDMPLECAIHFVEIRCYIDNLHFSGLEEWSDWSPVKNISWIPDSQTKVFPQDKVILVGSDITFCCVSQEKVLSALIGHTNCPLIHLDGENVAIKIRNISVSASSGTNVVFTTEDNIFGTVIFAGYPPDTPQQLNCETHDLKEIICSWNPGRVTALVGPRATSYTLVESFSGKYVRLKRAEAPTNESYQLLFQMLPNQEIYNFTLNAHNPLGRSQSTILVNITEKVYPHTPTSFKVKDINSTAVKLSWHLPGNFAKINFLCEIEIKKSNSVQEQRNVTIKGVENSSYLVALDKLNPYTLYTFRIRCSTETFWKWSKWSNKKQHLTTEASPSKGPDTWREWSSDGKNLIIYWKPLPINEANGKILSYNVSCSSDEETQSLSEIPDPQHKAEIRLDKNDYIISVVAKNSVGSSPPSKIASMEIPNDDLKIEQVVGMGKGILLTWHYDPNMTCDYVIKWCNSSRSEPCLMDWRKVPSNSTETVIESDEFRPGIRYNFFLYGCRNQGYQLLRSMIGYIEELAPIVAPNFTVEDTSADSILVKWEDIPVEELRGFLRGYLFYFGKGERDTSKMRVLESGRSDIKVKNITDISQKTLRIADLQGKTSYHLVLRAYTDGGVGPEKSMYVVTKENSVGLIIAILIPVAVAVIVGVVTSILCYRKREWIKETFYPDIPNPENCKALQFQKSVCEGSSALKTLEMNPCTPNNVEVLETRSAFPKIEDTEIISPVAERPEDRSDAEPENHVVVSYCPPIIEEEIPNPAADEAGGTAQVIYIDVQSMYQPQAKPEEEQENDPVGGAGYKPQMHLPINSTVEDIAAEEDLDKTAGYRPQANVNTWNLVSPDSPRSIDSNSEIVSFGSPCSINSRQFLIPPKDEDSPKSNGGGWSFTNFFQNKPND
With B2, the binding entry in assay [2] is “no binding”; in assay [3], “binds”.
